According to the supplement of paper PMC5949888:
Most values lie at the floor of the assay. Slopes are relative: functional sequences can read slightly below zero.

System: Saccharomyces cerevisiae PS128 hsf1 delta, HSF1(1-493) fusion
Assay: growth estimate (transactivation domain function in HSF1 fusion, heat-shock survival) (a.u. (slope of normalised read count over time)); higher = stronger growth at 37°C, i.e. more transactivation activity
Details: library: random library
Experimental: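 Random 60-nt DNA library encoding peptides of up to 20 aa, fused to the C-terminus of yeast HSF1 residues 1-493 (C-terminal TAD deleted) and expressed from the native HSF1 promoter on a CEN plasmid in hsf1-deleted S. cerevisiae PS128. Cells were selected at 37°C on -trp 5-FOA plates for 0, 2, 4, 6 and 8 days and amplicons were sequenced. Growth estimate is the slope of a robust linear fit of total-sum-normalised read counts (normalised to the first time point) over time, using at least 2 replicates. Sequences are classed functional (TAD activity) above a threshold of -0.13, set from stop-codon control sequences.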

Substance	growth estimate
ASGESLSSVLPTAPSYVRGR	< -0.25
ASGG	-0.222
ASGGNRQISSTQLEMHRRTG	< -0.25
ASGKNHSSKDKVRESSSPPR	< -0.25
ASGLLNRRDANAQ	< -0.25
ASGRLNYGN	< -0.25
ASGVVVHRTNLESLHVQATL	< -0.25
ASHARWGLNITECGYGQLMV	< -0.25
ASIATWRIFMEGQGRRV	< -0.25
ASIKSHVGARRFCYSLRE	< -0.25
ASISQCISAVNSWPFSRRCR	< -0.25
ASKRISYKLGYRCTGLIIYA	< -0.25
ASLGNSIGGLTVVNCDFLLT	< -0.25
ASLLLPTAQ	< -0.25
ASMGIESIFVNGRSFFSGQI	< -0.25
ASPI	< -0.25
ASQGVCHRPAP	< -0.25
ASQLTITYGNRDVLFTQAHY	< -0.25
ASQWSLAYGVRGHPGALRTG	< -0.25
ASRAFAGPLLTD	< -0.25
ASRDT	< -0.25
ASRNIR	< -0.25
ASRSHRSVLGIWQIPL	< -0.25
ASRSLFLRSVRRDLLLTRMS	-0.197
ASRTNI	< -0.25

Substance	growth estimate
ASRTNRRGPYG	< -0.25
ASSAIFEPGRLLRLARSTVC	< -0.25
ASSGTARHNVEITRIHCTPA	< -0.25
ASSKFRL	< -0.25
AST	< -0.25
ASTNTVAAQRGFRAEEPYAP	< -0.25
ASTQLRIS	< -0.25
ASTRLPPTKSVPPWA	< -0.25
ASTTRSVRTLCRLDLPEWSS	< -0.25
ASVADRILN	< -0.25
ASVCSV	< -0.25
ASVIFRLQSAPGLLGI	< -0.25
ASVIGIIRLRRRWGIVFGLI	< -0.25
ASVMKNTGQVGEFDGSTPGL	< -0.25
ASVNTFPYGCATETDALSIV	< -0.25
ASVRLLGRSSSRGSSVDLVV	< -0.25
ASVS	< -0.25
ASVVVVERLGPPP	< -0.25
ASWCSDDPELEAEFSLLVRW	-0.121
ASYGSLGLNSEVGTFRTYPS	< -0.25
ATALNLLSGILDPWESDWTN	-0.176
ATALWADS	< -0.25
ATASGVSGHVLGLRAMLCSQ	< -0.25
ATDCLAPLAASGCLNLATCS	< -0.25
ATERFFRQTSSIIAFSH	< -0.25

Substance	growth estimate
ATFFKTRGQYSVGSVGHAEV	-0.231
ATGAHFPG	< -0.25
ATGALSAGG	< -0.25
ATGDTMSY	< -0.25
ATGLSKMA	< -0.25
ATGNSKTV	< -0.25
ATGVGGVLASREDRKNRVGR	< -0.25
ATITNYGSGAERFWNSVLRT	< -0.25
ATK	< -0.25
ATKESLVVLDLR	< -0.25
ATKREKGKDVSKESACHDYM	< -0.25
ATLAETQPFVRLMR	< -0.25
ATLFGKIHHYVGFQQGDPLA	< -0.25
ATLQRWTHQGHVWI	< -0.25
ATLRHQGGASFQGRPI	< -0.25
ATNPPSASGVATHSALASSD	< -0.25
ATP	< -0.25
ATPHAVGTV	< -0.25
ATPLACPEVPSFLSENHSSP	< -0.25
ATPLNGNR	< -0.25
ATPRCTSVVIQTHAYPVHHF	< -0.25
ATRESASVCAMRDTVVGAAP	< -0.25
ATRNNSGLRRQSAVGRVLTD	< -0.25
ATRPGHFRQKWAPGGGEQSH	< -0.25
ATRQAVDEFPPGIV	< -0.25

Substance	growth estimate
ATRRRNT	< -0.25
ATRTYT	< -0.25
ATSATIV	< -0.25
ATSEGL	< -0.25
ATSI	< -0.25
ATSLGGVIITPCR	< -0.25
ATSY	< -0.25
ATTAWRLFISAGGVD	< -0.25
ATTS	< -0.25
ATVGVPPHGLCGSKVVPATN	< -0.25
ATVRI	< -0.25
AVAAPLVSELQIRLFPGGFL	< -0.25
AVAITIGAAGRKRAPCCDRA	< -0.25
AVALAAHECLSQFRKVIKST	< -0.25
AVAYTSLLDEWYGLDPAQGN	0.05
AVCTKAGGLWGARIFNIMTG	< -0.25
AVDRIHRVAVSTYYVHTTLA	< -0.25
AVERSESKFG	< -0.25
AVES	< -0.25
AVGLDGCRQGGGLLTCIRAK	< -0.25
AVGPNPGAPPVSS	< -0.25
AVGST	< -0.25
AVHASNVPQLVSRVQVEFFP	< -0.25
AVIGEDT	< -0.25
AVIQL	-0.198

Substance	growth estimate
AVIWRF	< -0.25
AVKGNS	< -0.25
AVKR	< -0.25
AVL	< -0.25
AVLGKA	< -0.25
AVLGKKLVNRPLHRHRRATP	< -0.25
AVLIQGGQWALAQGNGVQAS	< -0.25
AVMATGATSVW	< -0.25
AVN	< -0.25
AVNE	< -0.25
AVPAQYME	< -0.25
AVPRCLRAYGLHPGGS	0.246
AVPSTLLLHFQDGAHV	-0.243
AVRGCAVFLGPYE	< -0.25
AVRGVIRNGLSIFSIG	< -0.25
AVRHLFPMR	< -0.25
AVRHLPARRGRTASVIGPCE	< -0.25
AVRSFLLHTDYS	< -0.25
AVRYIYSGAVLP	< -0.25
AVSRSTDMRRGALLEFPGGF	< -0.25
AVSSGVQHASSLIFGDGGRA	< -0.25
AVSVAPL	< -0.25
AVSYCVSNQARSPRWVQVRG	< -0.25
AVTERKNAYRLQRLVTSGSV	< -0.25
AVTKYRAGPGLRARQGGNYN	< -0.25

Substance	growth estimate
AVVCIDGVILL	< -0.25
AVVGGRPETGYSLPALSPWI	< -0.25
AVVGRRCISPCTRPLDAAAP	< -0.25
AVYTLFLPAPGVPEGPSRRA	< -0.25
AWARLTSGIF	< -0.25
AWDVTHQEDVGVAMVAPLDN	< -0.25
AWDYRGCMGWACPV	< -0.25
AWEEY	< -0.25
AWGSNLRCPTGLLMDSRTQR	< -0.25
AWHCVRRLAIVALNNVRR	< -0.25
AWLGWQDGYMDTHQRGVNTG	-0.246
AWLIKVAYSVCKTSLLPGRA	< -0.25
AWNMRKQGGIFQCSLLW	< -0.25
AWNRDKPVPSGG	< -0.25
AWRATTTVRSR	< -0.25
AWSPTLPR	< -0.25
AWSPTVGLRRGCDPLSARTE	< -0.25
AWSVRTVLCSLGPCEGPKLR	< -0.25
AWTDKVRKSLNECVLSGPSG	< -0.25
AWVRLRTV	< -0.25
AWWPLVESGGLIIYWRTRSP	< -0.25
AYAGE	< -0.25
AYFTRTSGRSTVGPV	0.116
AYG	< -0.25
AYGPQVSLFSPCG	< -0.25

A few values from the list.
AWVRLRTV – growth estimate: < -0.25
AVYTLFLPAPGVPEGPSRRA – growth estimate: < -0.25
AVVCIDGVILL – growth estimate: < -0.25
AYG – growth estimate: < -0.25
AWGSNLRCPTGLLMDSRTQR – growth estimate: < -0.25
AWSVRTVLCSLGPCEGPKLR – growth estimate: < -0.25
AWLIKVAYSVCKTSLLPGRA – growth estimate: < -0.25

2 entries from above, field by field:
AVPSTLLLHFQDGAHV
  growth estimate: -0.243
AVRGCAVFLGPYE
  growth estimate: < -0.25

The results go on.

Substance	growth estimate
AYIGIAFS	< -0.25
AYIKTLSRGKPCVITQGI	< -0.25
AYLIRLAACPKTVTTHLDKC	< -0.25
AYLVRLQFNSHFQDIKCLAP	< -0.25
AYLWSGGFCDARGVG	< -0.25
AYPAGPVPVLATRSNECLER	< -0.25
AYPHLDNAFVVDRAS	< -0.25
AYRRWRVFGPVLCVLSVKLG	< -0.25
AYSRSYKGHLVTLARGVKQQ	< -0.25
AYSVDPNYA	< -0.25
CADVLWPCRPCSHC	< -0.25
CAGDASAYGNSARN	< -0.25
CAGE	< -0.25
CAGNEHKRGKDPPNEW	< -0.25
CAIRQVRLVGLREELVSMGQ	< -0.25
CAPATLFHWEPSYRSYTR	< -0.25
CAQNSNGTPLTDLGRTARQL	< -0.25
CAVVKCRCRNLCCAR	< -0.25
CAWHY	< -0.25
CCDE	< -0.25
CCERRRTRLSVRAAGAYFPH	< -0.25
CCESAQLFGLGGGSFD	< -0.25
CCGLLLRNIRVCHF	< -0.25
CCLWFRFLGGSGG	< -0.25
CCPAPMEGDFWFR	-0.229

Substance	growth estimate
CCSIAILGAYDCIEDVELRR	< -0.25
CCTLGKTL	< -0.25
CDAEKRQRAELHS	< -0.25
CDASLSRWTITTLSRNLRME	< -0.25
CDGRDGVSVVVVFTVLRQCR	< -0.25
CDGRTS	< -0.25
CDKS	< -0.25
CDLLRDQIELSSLEVHVGVR	< -0.25
CDNLATAAYLAISIFCVIPL	< -0.25
CDRLHRCEMRRLAIYHTR	-0.122
CDSCPAGQVRRR	< -0.25
CDVLLQNVTGSLSARVPPTR	< -0.25
CDWVNLDTAGTRLCNISFGV	-0.118
CEC	< -0.25
CEDGSPNGVHEERKGGNTGQ	< -0.25
CEIDLERSDTSLGKECLARS	< -0.25
CEKTGPGIQIHVVVMKCCDG	< -0.25
CENLSLPAS	< -0.25
